According to patent US7413853B2, “Modulation of metabolism of steroids and xenobiotics” (The Salk Institute for Biological Studies, priority 2001, dated 2008):
At least one compound was matched to its structure with a doubt left.

Test system: SXR
Test: Activation of SXR in transfection-based assays
Experimental: To characterize its response properties, a large variety of steroids, including intermediate and major products of known steroid biosynthetic pathways were tested.

Q: `C[C@@H]1C[C@H]2[C@@H]3CCC4=CC(=O)C=C[C@]4(C)[C@@]3(F)[C@@H](O)C[C@]2(C)[C@@]1(O)C(=O)CO` [dexamethasone] was tested. Which “SXR activation of DR-3, DR-4 and DR-5 elements” value (series of transfections) did it give?
A: Its value is “intermediate group”.

Q: And the “activation of SXR” value (transfection-based assays, steroids tested)?
A: Its value is “activated”.
